{
  "sequences": {"note": "By UniProt entry, the sequences of proteins in these tests, tags left out.", "UniProt P18054, whole entry, looked up": "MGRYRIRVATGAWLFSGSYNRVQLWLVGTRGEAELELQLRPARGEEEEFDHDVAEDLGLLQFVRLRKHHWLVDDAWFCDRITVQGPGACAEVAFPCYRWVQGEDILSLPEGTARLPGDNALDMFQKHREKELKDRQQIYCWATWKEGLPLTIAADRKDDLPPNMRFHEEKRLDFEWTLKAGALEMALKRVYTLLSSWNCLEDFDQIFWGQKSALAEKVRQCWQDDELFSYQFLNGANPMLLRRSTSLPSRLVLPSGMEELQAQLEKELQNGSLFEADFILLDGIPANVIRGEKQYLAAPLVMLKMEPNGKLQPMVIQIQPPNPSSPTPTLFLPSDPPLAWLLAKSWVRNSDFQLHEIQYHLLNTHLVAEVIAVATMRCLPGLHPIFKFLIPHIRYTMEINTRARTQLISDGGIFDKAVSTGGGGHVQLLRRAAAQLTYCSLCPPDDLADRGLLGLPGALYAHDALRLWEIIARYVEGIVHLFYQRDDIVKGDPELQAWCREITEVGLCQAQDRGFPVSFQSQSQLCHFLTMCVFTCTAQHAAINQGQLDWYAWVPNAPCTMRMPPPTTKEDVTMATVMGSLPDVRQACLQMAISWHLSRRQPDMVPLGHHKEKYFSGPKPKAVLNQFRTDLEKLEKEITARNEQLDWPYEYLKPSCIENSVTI"},
  "source": "PubChem BioAssay AID1671190",
  "about": "(National Center for Advancing Translational Sciences (NCATS), 2021)",
  "note": "Where “and” joins values, the source holds several entries; their conditions need not be identical. Equal entries are not always repeated. The campaign covered roughly 580,000 compounds. About 6,100 (1.1%) were called active. This list was built around the results that the source calls inconclusive (neither active nor inactive); the mix of calls is not that of the screen. Calls follow the shape of the dose curve; as a rule, active = well fitted inhibition curve with a large enough effect; inconclusive = small, poorly fitted or top-dose-only effect, or another doubt; inactive = no such curve, though single readings can be large or run the other way. Where the call is inconclusive, the potency comes from a doubtful curve fit. % is scaled to controls: 0 for no effect and ±100 for the full control effect; potency is read from the fitted curve at half-maximal effect.",
  "data": [
    {"molecular_target": "Polyunsaturated fatty acid lipoxygenase ALOX12 (Homo sapiens) (UniProt P18054)", "assay": "Primary qHTS assay for inhibitors of human arachidonate 12S-lipoxygenase (ALOX12): Round 2", "conditions": "purified 12hLO, xylenol orange hydroperoxide absorbance; activity change, negative = inhibition: at 108 µM (top of the series) unless noted", "outline": "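Purified human 12hLO at 150 nM in 25 mM Hepes, 0.01% Triton X-100, pH 7.0, preincubated 15 min at room temperature with compound. Reaction started with 40 uM arachidonic acid, 30 min at room temperature. Hydroperoxide measured by Fe-xylenol orange, 573/405 nm absorbance ratio.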", "values": [
      {"smiles": "CCNC(=S)NNc1nc(N2CCOCC2)nc(N2CCOCC2)n1", "Potency": "inconclusive: 22.4 µM [inhibitor, partial curve, poor fit]"},
      {"smiles": "Cc1ccc(-c2cc(N)n(-c3ccccc3)n2)cc1", "Potency": "inactive"},
      {"smiles": "Cc1ccccc1OCC(=O)Nc1ccc2nc(SCC(=O)N3CCCC3)sc2c1", "Potency": "inactive"},
      {"smiles": "COC(=O)c1ccc(NC(=O)c2ccc3nc(C)sc3c2)cc1", "Potency": "inactive"},
      {"smiles": "CN(CCCC(=O)Nc1ccc(Br)cc1F)S(=O)(=O)c1ccccc1", "Potency": "inconclusive: 56.2 µM [inhibitor, partial curve, poor fit]"},
      {"smiles": "CC(C)(O)CCc1cccc(C(=O)NC2CCN(S(C)(=O)=O)CC2)c1", "Potency": "inactive"},
      {"smiles": "O=C1C(Cl)=C(Nc2ccccc2O)C(=O)N1CCc1ccccc1", "Potency": "inconclusive: 39.8 µM [inhibitor, partial curve]"},
      {"smiles": "Cc1ccc(CNC(=O)c2cc(-c3ccccc3)n(Cc3cc(C)no3)n2)cc1", "Potency": "inconclusive: 89.1 µM [inhibitor, partial curve, poor fit]"},
      {"smiles": "c1cncc(CNCc2ccco2)c1", "Potency": "inconclusive: 50.1 µM [inhibitor, partial curve, poor fit] and inconclusive: 35.5 µM [inhibitor, single point]"},
      {"smiles": "Cc1ccc(S[C@@H](CCN2CC[C@H](C(C)(C)C)CCC2=O)c2ccccc2)cc1", "Potency": "inconclusive: 44.7 µM [inhibitor, partial curve, poor fit]"},
      {"smiles": "CNC(=O)c1cccc(-c2cnc3[nH]cc(CC(=O)NC4CCC4)c3c2)c1", "Potency": "inconclusive: 126 µM [inhibitor, single point]"},
      {"smiles": "CSc1ccccc1NC(=O)/C=C/c1ccco1", "Potency": "inconclusive: 39.8 µM [inhibitor, partial curve, poor fit]"},
      {"smiles": "CSc1nnc(-c2cc(Br)ccc2N=Cc2c(C)[nH]n(-c3ccccc3)c2=O)c(=O)[nH]1", "Potency": "inconclusive: 39.8 µM [inhibitor, partial curve, poor fit]"},
      {"smiles": "CCN(CC)c1ccc(NC(=S)Nc2cccc(C)c2)cc1", "Potency": "inconclusive: 35.5 µM [inhibitor, partial curve, poor fit]"},
      {"smiles": "C/C(CC(C)(C)c1ccccc1)=N\\NC(N)=S", "Potency": "inconclusive: 50.1 µM [inhibitor, partial curve, poor fit]"},
      {"smiles": "CCOC(=O)c1cc(-c2ccc(OC)c(S(=O)(=O)N3CCN(c4ccccc4)CC3)c2)on1", "Potency": "inactive"},
      {"smiles": "Cc1ccc(NC(=O)C2C3C=CC(O3)C2C(=O)O)cc1C", "note": "(stereo not drawn)", "Potency": "inconclusive: 12.6 µM [inhibitor, full curve, poor fit]"},
      {"smiles": "COC(=O)C1=C(C(=O)OC)C(C(=O)OC)N2C=CC=CC2=C1C(=O)OC", "note": "(stereo not drawn)", "Potency": "inconclusive: 56.2 µM [inhibitor, partial curve, poor fit]"},
      {"smiles": "CCN(CC)C(=O)CSc1nc(O)cc(=O)n1-c1ccccc1OC", "Potency": "inconclusive: 31.6 µM [inhibitor, full curve, poor fit]"},
      {"smiles": "Cn1c(/C=N/NC(=O)c2ccccc2)nc2ccccc21", "Potency": "inactive"},
      {"smiles": "NS(=O)(=O)c1ccc(N/C=C\\C(=O)c2ccc3ccccc3c2)cc1", "Potency": "inconclusive: 100 µM [inhibitor, single point]"},
      {"smiles": "COc1ccc(Cn2c(-c3ccc(OC)c(O)c3)nc3ccccc32)cc1O", "Potency": "inconclusive: 70.8 µM [inhibitor, partial curve, poor fit]"},
      {"smiles": "Cc1ccccc1-c1noc(Cn2cnc3c2c(=O)n(C)c(=O)n3C)n1", "Potency": "inactive"},
      {"smiles": "C[C@H](NC(=O)OC(C)(C)C)C(=O)N/N=C/C1=Cc2ccccc2OC1", "Potency": "inconclusive: 141 µM [inhibitor, single point]"},
      {"smiles": "COc1cccc(CNC(=O)[C@@H]2CCCN2C(=O)[C@H]2CCCCN2C(=O)c2cccc(Cl)c2)c1", "Potency": "inconclusive: 141 µM [inhibitor, single point]"},
      {"smiles": "C=CC[C@H](CC(=O)NCCO)C(=O)N[C@H](COC(=O)[C@@H](CC=C)CC(=O)OC(C)(C)C)Cc1ccccc1", "Potency": "inactive"},
      {"smiles": "CCOC(=O)c1cnc(-n2nc(C)cc2C)nc1N(CC)CC", "Potency": "inconclusive: 44.7 µM [inhibitor, partial curve, poor fit]"},
      {"smiles": "O=C(c1ccccc1)N1Cc2ccccc2CC2(CCCN2Cc2ccncc2)C1", "note": "(stereo not drawn)", "activity change, negative = inhibition": "inactive: 1.68% [at 6.33 µM]"},
      {"smiles": "O=C(CN1C(=O)NC2(CCCCC2)C1=O)N1CCN(S(=O)(=O)c2ccc(F)c(F)c2F)CC1", "Potency": "inactive"},
      {"smiles": "CCOC(=O)c1cnc2ccc(OCC)cc2c1NCc1ccccc1OC", "Potency": "inconclusive: 20 µM [inhibitor, partial curve, poor fit]"},
      {"smiles": "CCN(c1ccccc1)S(=O)(=O)c1ccc(NC(=O)c2nc(S(C)(=O)=O)ncc2Cl)cc1", "Potency": "inactive"},
      {"smiles": "CCOC(=O)c1cncc(C#N)c1", "Potency": "inactive"},
      {"smiles": "S=C(NCc1ccccn1)Nc1ccc(Cl)cc1", "Potency": "inconclusive: 44.7 µM [inhibitor, partial curve, poor fit]"},
      {"smiles": "CCc1cn[nH]c1C1CCCN(C(=O)c2cnn(-c3ccccc3OC)c2)C1", "note": "(stereo not drawn)", "Potency": "inactive"},
      {"smiles": "COC(=O)N1CCC2(C1)C(=O)N(CCc1ccccc1)c1ccccc12", "note": "(stereo not drawn)", "Potency": "inactive"},
      {"smiles": "O=S(=O)(c1cccs1)N1CN(CC2CCCO2)c2nc3ccccc3nc21", "note": "(stereo not drawn)", "Potency": "inactive"},
      {"smiles": "CC(C)Oc1cc(F)ccc1-c1cc(C(=O)NCCCn2ccnc2)[nH]n1", "Potency": "inactive"},
      {"smiles": "COCCCNC(=O)c1ccnc(-c2nnc3ccc(N(C)C)nn23)c1", "Potency": "inconclusive: 44.7 µM [inhibitor, partial curve, poor fit]"},
      {"smiles": "Cc1cc2oc(=O)cc(CN3CCN(CCc4ccncc4)CC3)c2cc1C", "Potency": "inconclusive: 50.1 µM [inhibitor, partial curve]"},
      {"smiles": "CNS(=O)(=O)c1cc(C(=O)O)ccc1OC", "Potency": "inconclusive: 7.08 µM [inhibitor, full curve, poor fit]"},
      {"smiles": "O=C(CCCOc1ccccc1)N1CCN(S(=O)(=O)c2cccs2)CC1", "Potency": "inactive"},
      {"smiles": "CC(CN1CCCCC1)OC(=O)c1cccc(F)c1", "note": "(stereo not drawn)", "Potency": "active: 56.2 µM"},
      {"smiles": "COc1cc(OC)c(OC)cc1/C=N/n1c(COc2ccccc2)n[nH]c1=S", "Potency": "inconclusive: 39.8 µM [inhibitor, partial curve, poor fit]"},
      {"smiles": "O=C(C1CCC(Cn2c(=O)c3sccc3n(Cc3ccc(Cl)cc3)c2=O)CC1)N1CCCC1", "note": "(stereo not drawn)", "Potency": "inactive"},
      {"smiles": "Cc1ccc(-c2nc(S(=O)(=O)c3ccc(C)cc3)c(N(C)C)o2)cc1", "Potency": "inconclusive: 25.1 µM [inhibitor, partial curve]"},
      {"smiles": "O=C(NCC(O)c1ccccc1)c1cccs1", "note": "(stereo not drawn)", "Potency": "inconclusive: 100 µM [inhibitor, single point]"},
      {"smiles": "CCN1CCN(CC(=O)Nc2nc3ccc(C)cc3s2)CC1", "Potency": "inconclusive: 100 µM [inhibitor, partial curve, poor fit]"},
      {"smiles": "CCn1c(/C=C/c2c(C)[nH]c3ccccc23)nc2ccccc2c1=O", "Potency": "inconclusive: 100 µM [inhibitor, single point]"},
      {"smiles": "COc1cc(CNC(=O)c2cnc3c(-c4cccc(C)c4)c(C)nn3c2C)cc(OC)c1OC", "Potency": "inconclusive: 2.51 µM [inhibitor, full curve, poor fit]"},
      {"smiles": "O=C(NC1CCN(c2cc(-c3cccs3)[nH]n2)CC1)c1cc(Cl)ccc1F", "Potency": "inactive"},
      {"smiles": "COc1cc(-c2n[nH]c(=S)n2-c2ccc(Br)cc2)cc(OC)c1OC", "Potency": "inconclusive: 39.8 µM [inhibitor, partial curve, poor fit]"},
      {"smiles": "CCC(CO)Oc1cc(NC(=O)c2ccc(OC)cc2)c2ncn(C(C)C)c2c1", "note": "(stereo not drawn)", "Potency": "inactive"},
      {"smiles": "CCSc1ccccc1C(=O)Nc1ccc(CC)cc1", "Potency": "inactive"},
      {"smiles": "CC1(CCCCc2ccccc2)COc2ccc(C(=O)NC3CCOCC3)cc2N1", "note": "(stereo not drawn)", "Potency": "inactive"},
      {"smiles": "CC(C)c1ccc(N(CC(=O)NCc2ccco2)C(=O)CCC(=O)Nc2nccs2)cc1", "Potency": "inconclusive: 89.1 µM [inhibitor, single point]"},
      {"smiles": "O=C(NC1CC(=O)N(c2ccc(Cl)cc2)C1)c1cc2ccccc2o1", "note": "(stereo not drawn)", "Potency": "inactive"},
      {"smiles": "CC(=O)Nc1ccc(Nc2ccc3cc(S(=O)(=O)N4CCCCC4)ccc3n2)cc1", "Potency": "inconclusive: 50.1 µM [inhibitor, partial curve, poor fit]"},
      {"smiles": "NC(=O)[C@@H]1CCCN1CC[C@H]1CN(C(=O)NC2CCCCC2)CC[C@H]1CC(=O)O", "Potency": "inconclusive: 12.6 µM [inhibitor, full curve, poor fit]"},
      {"smiles": "Cc1cccc(-n2c(SCC(=O)NC(C)c3cc4ccccc4o3)nnc2N2CCOCC2)c1", "note": "(stereo not drawn)", "Potency": "inconclusive: 79.4 µM [inhibitor, single point]"},
      {"smiles": "O=C1[C@@H]2CSCN2C(=O)CN1Cc1cccc(C(F)(F)F)c1", "Potency": "inconclusive: 25.1 µM [inhibitor, single point]"},
      {"smiles": "COC1CCC(N(C(=O)C2CCC(C)CC2)c2cc(C3=CCCCC3)sc2C(=O)O)CC1", "note": "(stereo not drawn)", "Potency": "inconclusive: 10.9 µM [inhibitor, partial curve, poor fit]"},
      {"smiles": "CCCCOCCO", "Potency": "inactive"},
      {"smiles": "FC(F)(F)c1cccc(N2CCC(N=CN3CCCCCC3)=N2)c1", "Potency": "inconclusive: 50.1 µM [inhibitor, partial curve, poor fit]"},
      {"smiles": "Cn1sc(NC(=O)c2ccccc2Cl)nc1=O", "Potency": "active: 44.7 µM"},
      {"smiles": "Cc1nc(CN2CC3(CCN(C)C3)c3cc(C(=O)NCCc4ccccc4)ccc32)cs1", "note": "(stereo not drawn)", "Potency": "inconclusive: 50.1 µM [inhibitor, partial curve]"},
      {"smiles": "O=S(=O)(NCc1ccco1)c1ccc(Cl)cc1Cl", "Potency": "inconclusive: 89.1 µM [inhibitor, partial curve, poor fit]"},
      {"smiles": "CC(C)N1CCc2c(sc(NC(=O)c3ccc4ccccc4c3)c2C(N)=O)C1", "Potency": "inconclusive: 44.7 µM [inhibitor, partial curve, poor fit]"},
      {"smiles": "Cc1ccc(NC(=O)C2COc3ccccc3O2)cc1S(=O)(=O)N1CCOCC1", "note": "(stereo not drawn)", "Potency": "inconclusive: 35.5 µM [inhibitor, partial curve, poor fit]"}
    ]}
  ]
}
